Experimental data taken from patent publication US20170342133A1.
Residue numbers refer to the chain shown, from its start. Results are given in words; binding and its absence hold for the method and conditions named. Some binding calls cover weakened binding; strength is not graded here. One block for each binder: values may come before it.

Target: MG10-GST fusion protein (human) (UniProt P40238)
Experiment: affinity chromatography on immobilized MG10-GST fusion protein

binding: binds
B1: hVB22B u2-wz4(v1) sc(Fv)2 (scFv)
scFv: QVQLVQSGPEVKKPGASVKVSCKASGYTFTNSWMNWVRERPGKGLEWIGRIYPGDGETIYNGKFRVRVTITADESTSTAYMQLSSLRSEDTAVYYCARGYDDYSFAYWGQGTTVTVSSGGGGSGGGGSGGGGSDIVMTQSPLSLPVTPGEPASISCRSSKSLLHSNGNTYLYWFLEKPGQSPQLLIYRMSNLASGVPDRFSGSGSGTDFTLKISRVEAEDVGVYYCMQHIEYPFTFGQGTKLEIKGGGGSGGGGSGGGGSQVQLVQSGPEVKKPGASVKVSCKASGYTFTNSWMNWVRKRPGKGLEWIGRIYPGDGETIYNGKFRVRVTITADESTSTAYMQLSSLRSEDTAVYYCARGYDDYSFAYWGQGTTVTVSSGGGGSGGGGSGGGGSDIVMTQSPLSLPVTPGEPASISCRSSKSLLHSNGNTYLYWFLKKPGQSPQLLIYRMSNLASGVPDRFSGSGSGTDFTLKISRVEAEDVGVYYCMQHIEYPFTFGQGTKLEIK

binding: binds
B2: hVB22B u2-wz4(v3) sc(Fv)2 (scFv)
scFv: B1 scFv with E176K, K436E
